Experimental data published in article PMC8522249.
No constants are given. Whether binding was seen depends on the method and setting. Binding seen in cells or lysates may run through a third protein. Some results given as binding are weak or reduced against the parent protein; the word gives no strength.

Amino acid sequences for entries named in this document (tags omitted). Residues count along the entry.
UniProt P60468: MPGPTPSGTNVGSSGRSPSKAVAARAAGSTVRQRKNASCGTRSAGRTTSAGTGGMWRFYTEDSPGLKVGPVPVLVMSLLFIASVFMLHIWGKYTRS
UniProt P05067, residues 672-770: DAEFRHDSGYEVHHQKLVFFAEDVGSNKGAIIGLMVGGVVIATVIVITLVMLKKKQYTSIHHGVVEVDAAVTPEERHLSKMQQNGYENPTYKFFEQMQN
UniProt O94822: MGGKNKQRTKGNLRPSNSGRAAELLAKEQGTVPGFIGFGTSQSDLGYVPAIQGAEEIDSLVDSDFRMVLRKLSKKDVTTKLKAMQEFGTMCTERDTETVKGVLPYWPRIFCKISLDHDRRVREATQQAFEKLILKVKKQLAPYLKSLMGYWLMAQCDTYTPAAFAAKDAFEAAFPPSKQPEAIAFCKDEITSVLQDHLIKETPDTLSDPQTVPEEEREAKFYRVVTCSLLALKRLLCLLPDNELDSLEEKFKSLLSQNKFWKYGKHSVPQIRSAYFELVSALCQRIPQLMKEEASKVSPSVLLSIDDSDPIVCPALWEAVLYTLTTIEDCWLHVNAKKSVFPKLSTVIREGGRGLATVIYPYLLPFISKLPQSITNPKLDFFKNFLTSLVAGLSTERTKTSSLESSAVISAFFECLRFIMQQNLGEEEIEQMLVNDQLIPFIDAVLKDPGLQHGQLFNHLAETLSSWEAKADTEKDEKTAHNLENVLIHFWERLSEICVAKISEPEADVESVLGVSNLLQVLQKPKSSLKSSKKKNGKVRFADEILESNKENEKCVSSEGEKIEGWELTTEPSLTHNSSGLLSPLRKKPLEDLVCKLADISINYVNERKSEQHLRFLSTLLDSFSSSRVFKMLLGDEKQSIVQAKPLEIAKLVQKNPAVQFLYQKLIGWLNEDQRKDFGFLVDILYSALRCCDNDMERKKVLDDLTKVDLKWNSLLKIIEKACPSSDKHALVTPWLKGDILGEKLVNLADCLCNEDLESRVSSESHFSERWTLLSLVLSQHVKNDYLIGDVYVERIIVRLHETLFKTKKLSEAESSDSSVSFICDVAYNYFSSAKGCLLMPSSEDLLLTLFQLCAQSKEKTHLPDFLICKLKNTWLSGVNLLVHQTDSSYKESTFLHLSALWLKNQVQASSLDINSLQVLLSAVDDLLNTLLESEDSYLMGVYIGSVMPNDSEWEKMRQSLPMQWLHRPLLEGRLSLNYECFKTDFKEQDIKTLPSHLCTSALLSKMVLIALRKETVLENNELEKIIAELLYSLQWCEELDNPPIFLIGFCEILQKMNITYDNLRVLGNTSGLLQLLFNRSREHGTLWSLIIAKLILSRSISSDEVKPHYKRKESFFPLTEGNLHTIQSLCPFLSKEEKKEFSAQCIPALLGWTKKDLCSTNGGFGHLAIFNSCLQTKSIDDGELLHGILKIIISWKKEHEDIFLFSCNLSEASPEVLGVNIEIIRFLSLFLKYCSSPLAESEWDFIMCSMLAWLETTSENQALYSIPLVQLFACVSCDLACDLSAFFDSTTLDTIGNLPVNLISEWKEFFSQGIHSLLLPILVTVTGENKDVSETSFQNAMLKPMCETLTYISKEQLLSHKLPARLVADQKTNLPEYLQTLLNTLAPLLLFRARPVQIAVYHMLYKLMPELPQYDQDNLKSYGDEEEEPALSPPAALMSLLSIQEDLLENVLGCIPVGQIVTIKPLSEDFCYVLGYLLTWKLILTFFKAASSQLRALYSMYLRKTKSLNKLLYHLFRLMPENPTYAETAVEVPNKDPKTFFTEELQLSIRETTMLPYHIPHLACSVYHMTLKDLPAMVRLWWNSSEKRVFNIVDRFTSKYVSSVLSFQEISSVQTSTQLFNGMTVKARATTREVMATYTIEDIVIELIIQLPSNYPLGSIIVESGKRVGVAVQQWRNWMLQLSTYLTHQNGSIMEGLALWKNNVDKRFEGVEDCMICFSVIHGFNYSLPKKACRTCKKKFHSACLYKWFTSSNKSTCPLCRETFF

Tests used:
[1] = biological target: Sec61B (ER translocon protein) (human (endogenous in HeLa)) (UniProt P60468); experiment: pull-down; ER translocon and associated proteins captured on concanavalin A (ConA) agarose beads from extracts or crude membrane fractions of HeLa cells, untransfected or transfected with APP.C99, 2 h at 4 °C; beads also treated with RNase A (1 µg/ml, 37 °C, 30 min) or EDTA (50 mM, on ice, 30 min)
[2] = biological target: APP.C99 (amyloid precursor protein C-terminal fragment), full-length species (human) (UniProt P05067); experiment: co-IP; IP of APP.C99 from transfected HeLa cells (the methods list 6E10), protein A/G beads; blots for ribosome-associated QC factors

binding [1]: binds
binding [2]: binds weakly
Substance: Ltn1 (from UniProt O94822 1-1766)
